According to patent US20220175882A1, “BETA-CASEIN A2 AND REDUCING OR […] OF LACTOSE INTOLERANCE” (THE A2 MILK COMPANY LIMITED, priority 2013, published 2022):
pIC50: −log10 of the molar value.

Assays:
[1] = system: Caco-2 Gut epithelial cells; experiment: cells; settings: Homo sapiens, Caco-2, read-out: IC50, inhibition of cysteine uptake
Experimental: (§1) Pre-treatment in cells was performed for different time points for 30 min, 4, 24 and 48 h as described previously (Trivedi M., et al.; Mol. Pharm., 2014). SH-SY5Y human neuronal cells and Caco-2 Gut epithelial cells were plated in six-well plates and were pretreated with drugs and incubated for various times prior to measuring uptake. Media were aspirated and cells were washed with 600 μL of HBSS at 37° C. Non-radioactive HBSS was aspirated, replaced with 600 μL of 37° C. HBSS containing [^35S]-cysteine (1 μCl/1 mL), 10 μM unlabelled cysteine and 100 μM DTT, and the cells were incubated for 5 min. The [^35S]-cysteine/HBSS mixture was aspirated and treatment was terminated by two washes with ice-cold HBSS. Cells were then lysed with 600 μL of dH2O, scraped, collected in 1.5 mL microcentrifuge tubes, and sonicated for 10 s. 100 μL of each sample was aliquoted for protein assay. 200 μL of each sample (in triplicate) was aliquoted into scintillation vials with 4 mL of scintillation fluid, vortexed, and counted for radioactivity (normalised against protein content). […] The symbol * used in these figures indicates a statistically significant difference (p<0.05) compared against the untreated control, and the symbol # indicates a statistically significant difference (p<0.005) compared against the untreated control.

[2] = system: SH-SY5Y human neuronal cells; experiment: cells
Experimental: as §1

SH-SY5Y neuronal cells = experiment: Intracellular cysteine, GSH and SAM/SAH levels by HPLC with electrochemical detection; assay type: cell-based, human; settings: 30 min, 4 h, 24 h
Experimental: Media was aspirated and the cells were washed twice with 1 mL of ice cold HBSS. HBSS was aspirated and 0.6 mL ice cold dH2O was added to the cells. The cells were scraped from the flask/dish and suspended in dH2O. […] The remaining lysate was added to a microcentrifuge tube and an equal volume of 0.4 N perchloric acid was added, followed by incubation on ice for 5 min. Samples were centrifuged at 5,000×g and the supernatant transferred to new microcentrifuge tubes.
The separation of redox and methylation pathway metabolites was accomplished using an Agilent Eclipse XDB-C8 analytical column (3×150 mm; 3.5 μm) and an Agilent Eclipse XDB-C8 (4.6×12.5 mm; 5 μm) guard column. […] The flow rate was initially set at 0.6 mL/min and a step gradient was used: 0-9 min 0% B, 9-19 min 50% B, 19-30 min 50% B. The column was then equilibrated with 5% B for 12 min prior to the next run. Temperature was maintained at 27° C. […] Sample concentrations were determined from the peak areas of metabolites using standard calibration curves and ESA-supplied HPLC software. Sample concentrations were normalised against protein content. In some cases samples were diluted in mobile phase as needed or up to 50 μl of sample was injected to assure that thiol levels were within the range of the standard curve.

`CN1CC[C@]23c4c5ccc(O)c4O[C@H]2[C@@H](O)C=C[C@H]3[C@H]1C5` [Morphine, morphine] was tested, and the pIC50 [1] was 8.20, the pIC50 ([2]; Homo sapiens, SH-SY5Y, read-out: IC50, inhibition of cysteine uptake) was 9.80 and the “Receptor mediating the effect on cysteine uptake” value ([2]; in presence of CTAP (selective μ-antagonist) or naltrindole (delta antagonist), FIG. 6) was “μ-opioid receptor mediated”. The “Time course of inhibition of cysteine uptake” value ([2]; neuronal cells and GI epithelial cells (FIG. 5), 30 min to 48 h exposure) was “fully developed after 30 minutes and was sustained through 48 hours” and the “Cysteine and glutathione (GSH) levels” value (SH-SY5Y neuronal cells) was “time-dependent decreases”.
